Laboratory results as given in the supplement of paper PMC12819154, “High-throughput peptide-centric local stability assay extends protein–ligand identification to membrane proteins, tissues and bacteria” (Nature Structural & Molecular Biology, 2025).
The other results are listed elsewhere or left out. Small differences around the control level are noise.

The chains behind the UniProt entries cited, without tags or fusion partners. Where a name states a change or a piece, a line headed by the entry shows the natural chain unless it says otherwise.
UniProt A2RRD8: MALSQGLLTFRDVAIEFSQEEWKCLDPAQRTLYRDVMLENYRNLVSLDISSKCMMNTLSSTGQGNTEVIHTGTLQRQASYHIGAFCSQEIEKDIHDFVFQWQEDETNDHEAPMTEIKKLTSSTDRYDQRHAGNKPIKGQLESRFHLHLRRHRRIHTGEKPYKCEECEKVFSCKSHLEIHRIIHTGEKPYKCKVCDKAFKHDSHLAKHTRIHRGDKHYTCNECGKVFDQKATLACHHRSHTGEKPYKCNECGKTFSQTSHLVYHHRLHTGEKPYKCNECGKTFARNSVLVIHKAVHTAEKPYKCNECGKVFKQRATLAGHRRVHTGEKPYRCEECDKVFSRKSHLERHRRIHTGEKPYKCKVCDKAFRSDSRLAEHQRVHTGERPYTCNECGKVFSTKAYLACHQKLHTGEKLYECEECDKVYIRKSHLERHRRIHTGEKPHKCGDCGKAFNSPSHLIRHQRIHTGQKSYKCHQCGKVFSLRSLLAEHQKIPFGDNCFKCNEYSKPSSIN
UniProt A4FU28: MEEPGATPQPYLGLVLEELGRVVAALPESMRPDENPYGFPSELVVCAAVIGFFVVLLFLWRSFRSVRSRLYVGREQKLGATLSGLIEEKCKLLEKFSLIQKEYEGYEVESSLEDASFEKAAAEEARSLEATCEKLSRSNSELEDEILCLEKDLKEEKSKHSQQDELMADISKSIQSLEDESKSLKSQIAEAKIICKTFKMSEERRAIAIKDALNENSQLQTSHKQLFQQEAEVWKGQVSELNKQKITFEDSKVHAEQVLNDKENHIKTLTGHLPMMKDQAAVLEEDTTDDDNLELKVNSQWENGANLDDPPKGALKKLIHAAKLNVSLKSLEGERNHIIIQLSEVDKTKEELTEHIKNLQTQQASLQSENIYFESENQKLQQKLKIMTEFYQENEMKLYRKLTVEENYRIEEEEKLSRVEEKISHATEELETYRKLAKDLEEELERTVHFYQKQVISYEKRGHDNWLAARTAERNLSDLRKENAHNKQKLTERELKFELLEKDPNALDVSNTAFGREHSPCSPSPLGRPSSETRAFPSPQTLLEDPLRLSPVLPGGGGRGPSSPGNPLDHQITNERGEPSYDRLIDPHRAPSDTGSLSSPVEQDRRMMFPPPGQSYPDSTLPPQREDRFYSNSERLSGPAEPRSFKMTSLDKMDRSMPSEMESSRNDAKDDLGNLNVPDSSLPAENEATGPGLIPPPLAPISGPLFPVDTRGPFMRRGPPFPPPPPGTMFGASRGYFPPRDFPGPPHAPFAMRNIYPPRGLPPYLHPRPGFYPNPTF
UniProt A4D2B8: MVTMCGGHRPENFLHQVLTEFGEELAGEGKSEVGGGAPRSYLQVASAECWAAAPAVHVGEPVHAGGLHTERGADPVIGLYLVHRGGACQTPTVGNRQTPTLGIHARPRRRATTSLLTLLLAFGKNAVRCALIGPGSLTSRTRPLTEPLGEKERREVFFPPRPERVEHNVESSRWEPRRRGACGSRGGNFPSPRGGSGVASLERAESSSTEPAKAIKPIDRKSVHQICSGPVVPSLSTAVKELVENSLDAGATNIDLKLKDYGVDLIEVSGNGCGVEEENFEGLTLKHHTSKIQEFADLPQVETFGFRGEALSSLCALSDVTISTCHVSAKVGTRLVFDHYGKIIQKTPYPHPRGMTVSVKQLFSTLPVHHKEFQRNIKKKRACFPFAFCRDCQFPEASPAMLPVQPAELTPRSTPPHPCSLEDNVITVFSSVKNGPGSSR
UniProt A2RRP1: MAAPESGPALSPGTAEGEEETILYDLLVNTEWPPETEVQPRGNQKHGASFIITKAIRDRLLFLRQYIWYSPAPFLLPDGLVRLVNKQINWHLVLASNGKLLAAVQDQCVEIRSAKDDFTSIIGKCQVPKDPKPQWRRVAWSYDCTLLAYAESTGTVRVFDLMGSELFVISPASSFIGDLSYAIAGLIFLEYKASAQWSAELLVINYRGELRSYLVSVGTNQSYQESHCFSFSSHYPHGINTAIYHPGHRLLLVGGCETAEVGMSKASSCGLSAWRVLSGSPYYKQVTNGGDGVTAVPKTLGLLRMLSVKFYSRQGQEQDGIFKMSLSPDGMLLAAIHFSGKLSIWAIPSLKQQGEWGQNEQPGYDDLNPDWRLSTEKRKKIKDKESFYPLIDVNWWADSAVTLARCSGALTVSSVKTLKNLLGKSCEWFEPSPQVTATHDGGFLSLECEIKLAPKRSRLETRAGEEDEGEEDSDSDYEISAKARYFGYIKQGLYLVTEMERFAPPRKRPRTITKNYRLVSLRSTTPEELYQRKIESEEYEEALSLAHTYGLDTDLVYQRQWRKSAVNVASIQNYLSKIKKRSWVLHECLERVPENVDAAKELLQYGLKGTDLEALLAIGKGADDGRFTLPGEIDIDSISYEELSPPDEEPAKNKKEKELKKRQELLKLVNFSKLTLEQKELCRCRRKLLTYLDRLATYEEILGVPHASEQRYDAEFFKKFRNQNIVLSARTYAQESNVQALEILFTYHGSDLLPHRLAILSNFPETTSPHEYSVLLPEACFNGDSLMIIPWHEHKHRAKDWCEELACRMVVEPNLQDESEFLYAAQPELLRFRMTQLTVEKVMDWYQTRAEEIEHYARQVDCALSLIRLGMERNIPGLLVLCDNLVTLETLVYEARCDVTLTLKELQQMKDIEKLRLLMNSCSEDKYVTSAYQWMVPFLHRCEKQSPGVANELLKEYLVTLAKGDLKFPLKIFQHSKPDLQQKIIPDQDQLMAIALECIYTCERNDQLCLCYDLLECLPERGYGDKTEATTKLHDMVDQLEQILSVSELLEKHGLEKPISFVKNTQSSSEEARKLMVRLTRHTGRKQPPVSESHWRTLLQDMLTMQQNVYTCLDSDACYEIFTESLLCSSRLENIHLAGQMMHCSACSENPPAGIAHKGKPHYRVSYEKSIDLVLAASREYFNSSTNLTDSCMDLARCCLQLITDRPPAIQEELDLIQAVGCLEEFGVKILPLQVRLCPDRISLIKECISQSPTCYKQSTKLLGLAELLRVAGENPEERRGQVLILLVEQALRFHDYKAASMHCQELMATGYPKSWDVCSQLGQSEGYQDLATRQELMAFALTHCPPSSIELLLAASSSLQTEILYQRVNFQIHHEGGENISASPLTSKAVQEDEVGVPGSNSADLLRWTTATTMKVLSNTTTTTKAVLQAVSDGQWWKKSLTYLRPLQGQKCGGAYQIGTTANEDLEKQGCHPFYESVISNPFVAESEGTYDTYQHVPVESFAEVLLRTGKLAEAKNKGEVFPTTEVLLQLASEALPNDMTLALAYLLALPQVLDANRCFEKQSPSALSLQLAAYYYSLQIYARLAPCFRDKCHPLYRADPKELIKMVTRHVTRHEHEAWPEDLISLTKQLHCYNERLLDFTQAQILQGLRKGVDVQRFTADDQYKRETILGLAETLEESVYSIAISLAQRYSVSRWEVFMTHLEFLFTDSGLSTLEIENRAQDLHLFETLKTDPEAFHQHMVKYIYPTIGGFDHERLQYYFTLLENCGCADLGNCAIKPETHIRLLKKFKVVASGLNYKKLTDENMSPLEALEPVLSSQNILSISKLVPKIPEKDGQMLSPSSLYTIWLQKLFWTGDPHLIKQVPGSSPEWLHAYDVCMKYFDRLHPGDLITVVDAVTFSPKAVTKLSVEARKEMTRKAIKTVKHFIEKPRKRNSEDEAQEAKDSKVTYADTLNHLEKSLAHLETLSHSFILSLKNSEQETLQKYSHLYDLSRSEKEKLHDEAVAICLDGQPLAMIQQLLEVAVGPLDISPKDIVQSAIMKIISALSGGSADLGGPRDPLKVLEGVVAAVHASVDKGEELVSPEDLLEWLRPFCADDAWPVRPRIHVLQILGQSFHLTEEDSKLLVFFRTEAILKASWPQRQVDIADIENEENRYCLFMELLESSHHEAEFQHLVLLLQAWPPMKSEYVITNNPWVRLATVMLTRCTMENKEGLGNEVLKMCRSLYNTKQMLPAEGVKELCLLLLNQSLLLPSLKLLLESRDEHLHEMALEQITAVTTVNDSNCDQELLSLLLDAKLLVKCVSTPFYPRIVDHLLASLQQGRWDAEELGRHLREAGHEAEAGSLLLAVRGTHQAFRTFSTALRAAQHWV
UniProt A5PL33: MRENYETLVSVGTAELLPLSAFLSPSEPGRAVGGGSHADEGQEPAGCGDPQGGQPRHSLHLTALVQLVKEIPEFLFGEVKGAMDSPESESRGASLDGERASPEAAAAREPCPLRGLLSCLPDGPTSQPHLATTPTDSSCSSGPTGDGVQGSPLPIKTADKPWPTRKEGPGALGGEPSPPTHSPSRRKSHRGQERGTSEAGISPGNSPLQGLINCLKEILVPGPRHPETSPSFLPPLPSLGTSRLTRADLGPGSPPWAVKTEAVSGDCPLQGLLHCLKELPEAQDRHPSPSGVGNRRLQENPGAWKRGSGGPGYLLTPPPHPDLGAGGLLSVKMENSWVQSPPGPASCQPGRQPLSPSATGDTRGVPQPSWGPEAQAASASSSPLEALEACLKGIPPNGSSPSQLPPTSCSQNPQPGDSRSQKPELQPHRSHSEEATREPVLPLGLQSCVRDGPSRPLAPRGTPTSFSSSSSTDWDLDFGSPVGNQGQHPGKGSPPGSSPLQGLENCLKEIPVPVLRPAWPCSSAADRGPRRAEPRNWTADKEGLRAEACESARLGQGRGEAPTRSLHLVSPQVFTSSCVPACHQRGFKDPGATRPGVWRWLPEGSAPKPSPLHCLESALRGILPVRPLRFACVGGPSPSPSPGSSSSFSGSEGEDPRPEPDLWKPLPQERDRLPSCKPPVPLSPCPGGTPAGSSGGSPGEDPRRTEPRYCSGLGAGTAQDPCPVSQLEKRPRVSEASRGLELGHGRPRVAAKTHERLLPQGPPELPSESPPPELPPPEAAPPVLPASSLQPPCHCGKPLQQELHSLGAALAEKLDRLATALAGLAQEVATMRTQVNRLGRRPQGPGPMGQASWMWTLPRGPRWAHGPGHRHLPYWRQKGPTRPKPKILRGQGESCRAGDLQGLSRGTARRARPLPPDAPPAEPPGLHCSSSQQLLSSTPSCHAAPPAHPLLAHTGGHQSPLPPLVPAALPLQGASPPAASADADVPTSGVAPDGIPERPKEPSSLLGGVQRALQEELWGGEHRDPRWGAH
UniProt A2RUR9: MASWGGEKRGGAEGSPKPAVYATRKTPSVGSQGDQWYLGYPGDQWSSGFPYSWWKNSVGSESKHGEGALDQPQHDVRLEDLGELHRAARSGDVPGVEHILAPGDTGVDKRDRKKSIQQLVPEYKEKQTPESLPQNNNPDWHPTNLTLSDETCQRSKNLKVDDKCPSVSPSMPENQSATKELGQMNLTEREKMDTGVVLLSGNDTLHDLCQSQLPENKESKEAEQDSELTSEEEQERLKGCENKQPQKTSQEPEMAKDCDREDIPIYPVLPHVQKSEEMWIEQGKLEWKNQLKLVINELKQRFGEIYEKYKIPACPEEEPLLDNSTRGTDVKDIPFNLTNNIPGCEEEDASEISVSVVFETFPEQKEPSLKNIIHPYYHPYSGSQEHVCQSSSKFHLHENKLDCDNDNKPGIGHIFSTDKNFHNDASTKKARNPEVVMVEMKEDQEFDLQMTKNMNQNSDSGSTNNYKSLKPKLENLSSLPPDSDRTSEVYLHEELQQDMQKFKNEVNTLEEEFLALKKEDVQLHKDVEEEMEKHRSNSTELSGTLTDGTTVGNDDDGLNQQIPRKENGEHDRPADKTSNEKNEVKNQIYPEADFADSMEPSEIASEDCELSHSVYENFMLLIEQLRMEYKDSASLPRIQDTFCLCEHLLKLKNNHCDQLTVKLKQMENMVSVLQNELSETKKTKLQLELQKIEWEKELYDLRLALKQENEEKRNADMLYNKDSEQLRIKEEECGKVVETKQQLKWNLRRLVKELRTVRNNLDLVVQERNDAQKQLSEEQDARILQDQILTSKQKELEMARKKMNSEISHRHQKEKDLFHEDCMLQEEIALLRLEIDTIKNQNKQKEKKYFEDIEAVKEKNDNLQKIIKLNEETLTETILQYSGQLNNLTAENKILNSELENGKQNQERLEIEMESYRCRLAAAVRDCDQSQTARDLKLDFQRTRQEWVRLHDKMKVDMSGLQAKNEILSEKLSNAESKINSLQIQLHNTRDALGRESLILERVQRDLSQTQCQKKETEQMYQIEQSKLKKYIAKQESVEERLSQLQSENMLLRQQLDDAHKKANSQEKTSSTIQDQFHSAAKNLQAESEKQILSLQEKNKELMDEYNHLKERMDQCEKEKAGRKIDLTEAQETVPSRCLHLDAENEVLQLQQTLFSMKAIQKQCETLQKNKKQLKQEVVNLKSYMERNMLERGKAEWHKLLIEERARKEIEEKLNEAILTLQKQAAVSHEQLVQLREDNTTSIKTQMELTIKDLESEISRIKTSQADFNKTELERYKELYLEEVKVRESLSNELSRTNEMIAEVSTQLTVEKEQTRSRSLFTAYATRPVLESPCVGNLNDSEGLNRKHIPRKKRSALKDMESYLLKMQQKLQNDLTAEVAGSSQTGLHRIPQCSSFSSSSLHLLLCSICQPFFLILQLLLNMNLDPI

compound: CN[C@@H]1C[C@H]2O[C@@](C)([C@@H]1OC)n1c3ccccc3c3c4c(c5c6ccccc6n2c5c31)C(=O)NC4 [staurosporine]; test: log2 fold change of tryptic peptide abundance, ligand vs vehicle (limited proteolysis) (log2 ratio); higher = more trypsin-susceptible (destabilized); details: ligand concentration: 20 uM; sample: K562 cleared lysate; digestion: 4 min, 22 C (HT-PELSA RT4min, Orbitrap Astral)

Row | Target | log2 fold change
1 | UniProt A3KMH1 (peptide sequence: LDAGHTVYQVSQAEKDAVPEEVKR, peptide start residue: 1590) | -0.589
2 | SBNO1 (peptide sequence: DSPCKENK, peptide start residue: 696) (UniProt A3KN83) | 0.633
3 | UniProt A4QPH2 (peptide sequence: SGTPMQSAAK, peptide start residue: 1791) | -0.286
4 | UniProt A2RRD8 (peptide sequence: NLVSLDISSK, peptide start residue: 43) | 0.164
5 | A0AVT1 (peptide sequence: NAIFQLEK, peptide start residue: 823) | 0.214
6 | C5orf51 (peptide sequence: ENNMHPK, peptide start residue: 112) (UniProt A6NDU8) | 0.313
7 | UniProt A4FU28 (peptide sequence: ISHATEELETYR, peptide start residue: 1029) | 0.168
8 | WDR91 (peptide sequence: LPPYVSNMDR, peptide start residue: 227) (UniProt A4D1P6) | 0.133
9 | UniProt A4D2B8 (peptide sequence: AESSSTEPAK, peptide start residue: 4) | -0.15
10 | A0A0B4J2A2 (peptide sequence: IIPGFMCQGGDFTR, peptide start residue: 56), A0A0B4J2A2 | 0.101
11 | UniProt A0FGR8 (peptide sequence: ALALLEDEER, peptide start residue: 163) | -0.134
12 | A0A0U1RRE5 (peptide sequence: STLPPGNAR, peptide start residue: 11), A0A0U1RRE5 | -0.179
13 | UniProt A2RRP1 (peptide sequence: RGQVLILLVEQALR, peptide start residue: 1280) | 0.379
14 | UniProt A6NE01 (peptide sequence: VKRESPFDK, peptide start residue: 550) | 0.151
15 | A0A8I5KQE6 (peptide sequence: SDGIYIINLK, peptide start residue: 43), A0A8I5KQE6 | 0.117
16 | KRBA1 (peptide sequence: SHSEEATREPVLPLGLQSCVR, peptide start residue: 430) (UniProt A5PL33) | -0.432
17 | CPED1 (peptide sequence: NIEKPQVPFDAIENK, peptide start residue: 534) (UniProt A4D0V7) | 0.501
18 | MED19 (peptide sequence: LHTGPLPEQCR, peptide start residue: 154) (UniProt A0JLT2) | -0.122
19 | ILVBL (peptide sequence: DGHPVVVNILIGR, peptide start residue: 610) (UniProt A1L0T0) | -0.191
20 | PGP (peptide sequence: GETAVPGAPEALR, peptide start residue: 42) (UniProt A6NDG6) | -0.0926
21 | UniProt A6NDY0 (peptide sequence: VTILCDKFSGHPK, peptide start residue: 201) | -0.0817
22 | CCDC144A (peptide sequence: FKNEVNTLEEEFLALKK, peptide start residue: 502) (UniProt A2RUR9) | -0.153
23 | PTPDC1 (peptide sequence: HLLHGYEAR, peptide start residue: 272) (UniProt A2A3K4) | 0.924
24 | A0A024RBG1 (peptide sequence: MKFKPNQTR, peptide start residue: 2), A0A024RBG1 | 0.407
25 | A0A096LP55 (peptide sequence: EQCEQLEK, peptide start residue: 35), A0A096LP55 | -0.133
26 | VPS37C (peptide sequence: METLKDK, peptide start residue: 1) (UniProt A5D8V6) | 0.208
27 | MEX3A (peptide sequence: DRDPVFEITGAPGNVER, peptide start residue: 263) (UniProt A1L020) | -0.322
28 | A0A7P0TAN4 (peptide sequence: TFSQTSSLVGHR, peptide start residue: 323) | 0.31
29 | FAM83G (peptide sequence: LAQNARPMTDGR, peptide start residue: 763) (UniProt A6ND36) | 0.624
30 | A0AVF1 (peptide sequence: GVQHTDKR, peptide start residue: 13) | 0.517

As entered above:
Entry for MEX3A (peptide sequence: DRDPVFEITGAPGNVER, peptide start residue: 263) (UniProt A1L020) under log2 fold change: -0.322
Entry for A0A7P0TAN4 (peptide sequence: TFSQTSSLVGHR, peptide start residue: 323) under log2 fold change: 0.31
